These results are taken from PMC5041457, “Synergy and antagonism in regulation of recombinant human INO80 chromatin remodeling complex” (Nucleic Acids Research, 2016).

No constants are given. Whether binding was seen depends on the method and setting. Some entries that bind do so weakly or less than the wild type.

Assay [1] has as its target Arp5 (human) (UniProt Q9H9F9). In words: co-purification; as the core complex but with either the Arp5 gene or the Ies6 gene omitted from the co-expression; purified by the tags of Ino80.
Assay [2] deals with Arp5-2xSII (human) (UniProt Q9H9F9). In words: co-purification; Arp5-2xSII and Ies6 co-expressed in insect cells; StrepTactin HP, HiTrap Q, Superdex 200 (50 mM Tris pH 8.0, 300 mM NaCl, 1 mM TCEP, 10% glycerol).

As to Ies6 (from UniProt Q6PI98 1-192), the binding entry in assay [1] and in assay [2] was “binds” in each case.
